# Experimental data taken from paper PMC7862700.
# Amino acid sequences for entries named in this document (tags omitted). A change or cut given only in a name is not applied to a line headed by its entry.
# UniProt Q01892: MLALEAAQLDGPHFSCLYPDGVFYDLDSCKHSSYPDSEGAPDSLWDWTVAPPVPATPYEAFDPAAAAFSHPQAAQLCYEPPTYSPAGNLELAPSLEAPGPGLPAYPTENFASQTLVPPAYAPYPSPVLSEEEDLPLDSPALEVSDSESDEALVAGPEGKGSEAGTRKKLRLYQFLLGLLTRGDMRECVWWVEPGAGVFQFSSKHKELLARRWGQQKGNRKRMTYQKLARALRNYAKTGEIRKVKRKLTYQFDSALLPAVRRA
# Only a part is listed here, and it is no random draw. At the low end of the ranking, values are background and their order means little.
# Assays:
# Assay in all cases: DAPPL (digital affinity profiling via proximity ligation, sequencing)
# Settings in all cases: 10 mM Tris-HCl pH 7.5, 50 mM NaCl, 1 mM DTT, 4% glycerol, room temperature, 30 min; GST-TFs on glutathione beads, 16-mer random dsDNA library, 0.1% …; high values mean tight binding; double strand, one strand shown; scale: fold enrichment (6-mer frequency, TF over GST control)
# EHF = biological target: T1, EHF (UniProt Q9NZC4)
# T1 sequence: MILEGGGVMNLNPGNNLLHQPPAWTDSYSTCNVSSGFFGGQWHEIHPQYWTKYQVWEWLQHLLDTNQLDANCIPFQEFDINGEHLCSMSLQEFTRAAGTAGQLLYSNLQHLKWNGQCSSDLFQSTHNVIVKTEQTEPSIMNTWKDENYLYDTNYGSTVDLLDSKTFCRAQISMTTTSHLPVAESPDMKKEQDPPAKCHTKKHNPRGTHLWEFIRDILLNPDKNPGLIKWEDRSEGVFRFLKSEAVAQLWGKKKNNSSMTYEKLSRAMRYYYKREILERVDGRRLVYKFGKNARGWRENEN
# ETV2 = biological target: T2, ETV2 (UniProt O00321)
# T2 sequence: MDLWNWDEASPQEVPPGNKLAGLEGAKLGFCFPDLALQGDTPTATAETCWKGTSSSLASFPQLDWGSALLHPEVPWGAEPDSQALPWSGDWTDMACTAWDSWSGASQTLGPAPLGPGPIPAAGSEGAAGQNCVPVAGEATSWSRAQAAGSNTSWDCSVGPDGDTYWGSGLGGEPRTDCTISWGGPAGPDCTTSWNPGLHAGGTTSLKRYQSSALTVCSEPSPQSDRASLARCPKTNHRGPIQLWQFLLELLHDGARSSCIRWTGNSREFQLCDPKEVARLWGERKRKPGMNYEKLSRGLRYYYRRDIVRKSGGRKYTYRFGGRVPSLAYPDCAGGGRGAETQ
# ETV3L = biological target: T3, ETV3L (UniProt Q6ZN32)
# T3 sequence: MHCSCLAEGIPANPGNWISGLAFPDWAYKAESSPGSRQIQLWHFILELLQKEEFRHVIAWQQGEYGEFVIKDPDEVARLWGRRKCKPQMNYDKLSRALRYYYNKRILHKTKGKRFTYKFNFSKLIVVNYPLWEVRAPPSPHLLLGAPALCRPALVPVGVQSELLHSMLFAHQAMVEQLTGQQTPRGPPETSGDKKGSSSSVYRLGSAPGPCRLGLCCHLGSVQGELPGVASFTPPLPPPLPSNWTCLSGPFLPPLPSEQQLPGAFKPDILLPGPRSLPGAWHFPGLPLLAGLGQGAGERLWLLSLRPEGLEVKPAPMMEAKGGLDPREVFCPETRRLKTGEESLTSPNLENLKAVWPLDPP
# SPIB = SPIB (UniProt Q01892)
sequence,measurement,setting,value
GGCCCT,binding signal,EHF,0.963
same,binding signal,ETV2,1.14
same,binding signal,ETV3L,0.995
TGATAC,binding signal,SPIB,1.12
same,binding signal,ETV2,0.999
same,binding signal,ETV3L,1.07
TAGAAG,binding signal,SPIB,1.24
same,binding signal,ETV2,1.18
same,binding signal,ETV3L,1.17
GCGCGC,binding signal,ETV2,0.86
same,binding signal,ETV3L,1
CCGCGC,binding signal,EHF,1.05
same,binding signal,ETV2,1.29
TCACTC,binding signal,EHF,1.27
same,binding signal,ETV2,1.35
CAATGG,binding signal,EHF,0.951
same,binding signal,ETV2,0.858
same,binding signal,ETV3L,0.987
CTCCGA,binding signal,EHF,1.39
same,binding signal,ETV2,1.19
same,binding signal,ETV3L,1.38
CACGGA,binding signal,EHF,1.1
same,binding signal,ETV2,0.936
GTTGTT,binding signal,EHF,1.12
same,binding signal,ETV2,0.888
TTACTA,binding signal,ETV2,1.34
same,binding signal,ETV3L,1.32
CAAGTT,binding signal,ETV2,1.03
same,binding signal,ETV3L,1.1
CACACA,binding signal,ETV2,1.23
same,binding signal,ETV3L,1.22
CATAAA,binding signal,EHF,0.879
same,binding signal,ETV2,1
GCCCCA,binding signal,EHF,0.986
same,binding signal,ETV2,0.967
TGAGCT,binding signal,EHF,1.16
same,binding signal,SPIB,0.989
same,binding signal,ETV2,1.19
same,binding signal,ETV3L,0.969
CACCAA,binding signal,EHF,1.06
same,binding signal,ETV2,1.12
CCGCTG,binding signal,ETV2,0.923
same,binding signal,ETV3L,1.04
CATCAT,binding signal,EHF,1.07
same,binding signal,ETV2,1.22
same,binding signal,ETV3L,1.07
TAGGGT,binding signal,ETV2,1.16
ATGCCG,binding signal,EHF,1.16
same,binding signal,ETV2,0.936
same,binding signal,ETV3L,0.986
GTCTTG,binding signal,ETV2,0.792
same,binding signal,ETV3L,1.04
CGGATG,binding signal,SPIB,1.6
same,binding signal,ETV2,1.39
same,binding signal,ETV3L,1.62
TCATAC,binding signal,EHF,1.02
same,binding signal,ETV2,1.15
AAATCG,binding signal,EHF,1.03
same,binding signal,ETV2,0.977
AGGAAC,binding signal,ETV2,1.15
same,binding signal,ETV3L,0.988
GAAGTC,binding signal,SPIB,1.22
same,binding signal,ETV2,1.08
same,binding signal,ETV3L,1.14
AGTTCT,binding signal,EHF,0.988
same,binding signal,ETV2,0.993
CTCCAA,binding signal,EHF,1.26
same,binding signal,ETV2,1.36
CACCGG,binding signal,EHF,1.13
same,binding signal,ETV2,0.908
same,binding signal,ETV3L,1.14
CCTAAC,binding signal,EHF,1.31
same,binding signal,SPIB,1.4
same,binding signal,ETV2,1.41
same,binding signal,ETV3L,1.45
AAGGGT,binding signal,ETV2,0.88
same,binding signal,ETV3L,0.944
ATAAAG,binding signal,ETV2,0.956
ATACTT,binding signal,ETV2,1.53
ACAACC,binding signal,EHF,1.29
same,binding signal,ETV2,1.26
CTCAGT,binding signal,ETV2,1.2
TGTGCG,binding signal,EHF,0.939
same,binding signal,ETV2,1.2
same,binding signal,ETV3L,0.941
TATGTC,binding signal,ETV2,1.02
TTTTCC,binding signal,ETV2,1.88
CGCCGG,binding signal,EHF,1.19
same,binding signal,SPIB,0.955
same,binding signal,ETV2,1.06
CGGCCT,binding signal,EHF,1.08
same,binding signal,SPIB,1.02
same,binding signal,ETV2,0.956
CCGCAG,binding signal,EHF,0.998
same,binding signal,SPIB,1.21
same,binding signal,ETV2,1.22
ACAGCA,binding signal,SPIB,0.955
same,binding signal,ETV2,1.06
CGCGTT,binding signal,EHF,0.986
same,binding signal,SPIB,1.05
same,binding signal,ETV2,1.16
GTCTCT,binding signal,ETV3L,1.35
CTATGT,binding signal,ETV3L,1.06
TTACAT,binding signal,EHF,1.43
same,binding signal,SPIB,1.3
same,binding signal,ETV2,1.43
CGTAGC,binding signal,ETV3L,1.09
CTTTAG,binding signal,SPIB,1.11
same,binding signal,ETV2,1.23
CCTGTA,binding signal,SPIB,1.19
same,binding signal,ETV2,1.21
ACGGAA,binding signal,SPIB,1.93
same,binding signal,ETV2,1.75
CAGCCT,binding signal,EHF,0.981
same,binding signal,ETV2,0.951
TCACCT,binding signal,EHF,1.21
same,binding signal,ETV2,1.21
CAACCT,binding signal,EHF,1.21
same,binding signal,ETV2,1.28
ATCCTT,binding signal,ETV3L,1.58
GGTCAC,binding signal,ETV3L,0.987
ACGACA,binding signal,ETV3L,1.12
GCGCCC,binding signal,ETV3L,1.2
GTCTCG,binding signal,ETV3L,1.29
GTTCTC,binding signal,SPIB,1.35
same,binding signal,ETV2,1.33
AGCGCT,binding signal,EHF,0.976
same,binding signal,SPIB,1.09
same,binding signal,ETV2,0.947
GGTGTT,binding signal,EHF,1.04
same,binding signal,ETV2,1.13
TAAGCC,binding signal,EHF,1.08
same,binding signal,ETV2,1.09
TCACCG,binding signal,SPIB,0.997
same,binding signal,ETV2,0.938
TCCGTT,binding signal,ETV3L,1.46
CGAACA,binding signal,SPIB,1.19
same,binding signal,ETV2,1.22
AACGAT,binding signal,ETV3L,1.19
CACCTC,binding signal,ETV3L,1.18
AATTTG,binding signal,ETV3L,1.3
GTACGC,binding signal,SPIB,0.988
same,binding signal,ETV2,0.988
TCGCTG,binding signal,SPIB,1.22
same,binding signal,ETV2,0.926
GCAACC,binding signal,EHF,1.11
same,binding signal,ETV2,0.942
TCCTTA,binding signal,ETV3L,1.7
TCAAGG,binding signal,SPIB,1.04
same,binding signal,ETV2,1.19
TAAAAA,binding signal,ETV3L,1.37
TCAGCA,binding signal,ETV3L,0.989
TCGTTT,binding signal,EHF,1.22
same,binding signal,SPIB,1.18
same,binding signal,ETV2,1.3
TGCAAT,binding signal,ETV3L,1.12
ATAGCC,binding signal,ETV3L,0.964
CCTGAA,binding signal,SPIB,1.42
same,binding signal,ETV3L,1.35
TTAGGT,binding signal,ETV3L,0.987
TTGTCA,binding signal,SPIB,1.21
same,binding signal,ETV3L,1.17
TGTACA,binding signal,SPIB,1.35
same,binding signal,ETV3L,1.23
CACAAA,binding signal,EHF,1.11
same,binding signal,SPIB,1.04
same,binding signal,ETV3L,1.16
TGCGCC,binding signal,SPIB,1.27
same,binding signal,ETV3L,1.27
GCACAC,binding signal,EHF,0.938
same,binding signal,SPIB,0.953
same,binding signal,ETV3L,1.04
ATGGCA,binding signal,EHF,1.35
same,binding signal,ETV3L,1.2
GCTACG,binding signal,SPIB,1.16
same,binding signal,ETV3L,1.16
CCAAAC,binding signal,SPIB,1.06
same,binding signal,ETV3L,1.12
TGTCCG,binding signal,SPIB,1.56
same,binding signal,ETV3L,1.4
TACGCG,binding signal,EHF,1.06
ACGACT,binding signal,ETV3L,1.28
AGATTT,binding signal,SPIB,1.09
same,binding signal,ETV3L,1.17
GCTACT,binding signal,EHF,1.33
AGTGTC,binding signal,ETV3L,0.997
GGTTTG,binding signal,EHF,1.22
TATCGC,binding signal,EHF,1.28
GTCCTC,binding signal,EHF,1.28
GTAATA,binding signal,EHF,1.2
GTTTCA,binding signal,ETV3L,1.35
CACATG,binding signal,SPIB,0.987
same,binding signal,ETV3L,1.03
TCATCC,binding signal,EHF,1.38
CCTGTG,binding signal,EHF,0.972
TTAAGG,binding signal,EHF,1.13
CCAAGC,binding signal,SPIB,0.914
same,binding signal,ETV3L,1.01
GGCTTG,binding signal,EHF,0.97
same,binding signal,ETV3L,0.986
AACCTG,binding signal,EHF,1.22
TTCAAT,binding signal,ETV3L,1.47
GGTTCC,binding signal,EHF,1.59
same,binding signal,SPIB,1.59
same,binding signal,ETV3L,1.46
TCGTCA,binding signal,EHF,1.02
same,binding signal,ETV3L,0.968
GGTATC,binding signal,EHF,0.993
same,binding signal,ETV3L,1.02
CCCTGA,binding signal,EHF,0.989
ATAGAT,binding signal,EHF,1.17
same,binding signal,ETV3L,1.25
CCCATC,binding signal,EHF,1.17
same,binding signal,SPIB,1.18
same,binding signal,ETV3L,1.15
CGGTAT,binding signal,SPIB,1.07
same,binding signal,ETV3L,0.978
CACGCA,binding signal,SPIB,1.01
same,binding signal,ETV3L,0.969
CGCACG,binding signal,EHF,0.983
same,binding signal,ETV3L,1.01
TCATGT,binding signal,SPIB,0.997
same,binding signal,ETV3L,1.15
AACACG,binding signal,ETV3L,1.15

# Rewritten tab-delimited: entries from further up
sequence	measurement	setting	value
GCGCGC	binding signal	ETV2	0.86
CTCCAA	binding signal	ETV2	1.36
ATACTT	binding signal	ETV2	1.53
GTCTCG	binding signal	ETV3L	1.29
GGTGTT	binding signal	ETV2	1.13
GCAACC	binding signal	EHF	1.11
CACATG	binding signal	SPIB	0.987

# 6 entries from above, bar-delimited:
sequence | measurement | setting | value
TCGTTT | binding signal | SPIB | 1.18
same | binding signal | ETV2 | 1.3
TGCAAT | binding signal | ETV3L | 1.12
ATAGCC | binding signal | ETV3L | 0.964
CCTGAA | binding signal | SPIB | 1.42
same | binding signal | ETV3L | 1.35
